According to US20240277865A1 (ACADEMIA SINICA, published 2024):
These are yes or no findings as the source states them, for the method shown. Some results given as binding are weak or reduced against the parent protein; the word gives no strength.

By UniProt entry, the sequences of proteins in these tests, tags left out. Where a name states a change or a piece, a line headed by the entry shows the natural chain unless it says otherwise. Chains listed by the source or under a name are the forms on record and can include a tag or linker.
mesothelin (MSLN) (Q13421, form named): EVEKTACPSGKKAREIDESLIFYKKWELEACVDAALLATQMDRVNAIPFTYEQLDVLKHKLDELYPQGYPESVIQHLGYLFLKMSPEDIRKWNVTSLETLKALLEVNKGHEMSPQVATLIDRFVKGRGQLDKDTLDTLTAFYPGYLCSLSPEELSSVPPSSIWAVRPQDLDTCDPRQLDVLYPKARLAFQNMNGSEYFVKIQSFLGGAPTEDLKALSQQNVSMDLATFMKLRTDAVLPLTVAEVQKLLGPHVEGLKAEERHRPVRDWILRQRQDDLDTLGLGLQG

Target: mesothelin (MSLN) (UniProt Q13421)
Assay: summary of the ELISA EC50 results

B1: CHS5 IgG (antibody, V domains shown)
VH: EVQLVESGGGLVQPGGSLRLSCAASGFTITDRTIHWVRQAPGKGLEWVASIFPTKGVTTYADSVKGRFTISADTSKNTAYLQMNSLRAEDTAVYYCARGRYWMDYWGQGTLVTVSS
VL: DIQMTQSPSSLSASVGDRVTITCRASQDVKEGVAWYQQKPGKAPKLLIDQSHRLYSGVPSRFSGSGSGTDFTLTISSLQPEDFATYYCQQYYAWPSTFGQGTKVEIKR
notes: also called IgG1-CHS5
For B1, the binding was “binds”.
